Molecules are shown by their SMILES. The list shows a part of the results. Shown are side measurements of this screen, not its main read-out; they come without a call. The list favours compounds with an active or inconclusive main result. The note in brackets gives the kind of curve behind each potency; many fits are weak.

This test in a line: qHTS Assay to Find Inhibitors of Chronic Active B-Cell Receptor Signaling. Conditions: ABC-DLBCL IkBa-CBG/CBR reporter, luminescence ratio (green luciferase fused to IkBa over red control in TMD8 lymphoma cells), 4 h. The method in brief:
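Concentration-response series (up to 46 uM) were applied to TMD8 dual-reporter cells for 4 h at 37C with doxycycline. Green/red ratio, after filter-overlap correction, defined %Activity; red signal alone was normalised to basal cells and zero luminescence.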
(In general: Quantitative high-throughput screening tests each substance at several concentrations.)

Where [1] appears, read: measured here: CBR red luminescence, cell number.
Setting [2] is: measured here: IkBa-CBG green luminescence.

In the case of `Cc1ccc(C(=O)CC2(O)C(=O)N(Cc3ccccc3Cl)c3ccccc32)o1` (stereo unspecified), under setting [1], the AC50 – broadly, the concentration at which the activity in the assay is half-maximal – was 6.51 µM [falling, single point].

Turning to `COc1ccccc1C(=O)NCC(=O)Nc1ccc2c(c1)CCC2`, the half-maximal activity concentration (AC50) under setting [1] is 23.1 µM [rising, partial curve].

`C/C(=N\NC(=O)c1ccccc1O)c1ccc(NC(=O)Cc2ccccc2)cc1`: the AC50 under setting [1] was 7.08 µM [falling, full curve].

In the case of `COC(=O)CSC1=C(C#N)C(c2ccc(C)o2)CC(=O)N1` (stereo unspecified), the AC50 was 20 µM [rising, partial curve, poor fit] under setting [1] and 20 µM [falling, partial curve, poor fit] under setting [2].

As for `CCN(CC)c1ccc(CN(C(=O)c2cc(OC)c(OC)c(OC)c2)C2CCS(=O)(=O)C2)cc1` (stereo unspecified), the AC50 under setting [1] was 5.62 µM [rising, full curve, poor fit].

Consider `CCOC(=O)c1ccc2c(c1)n(CC)c(/C=C/N(C)c1ccccc1)[n+]2CC`, for which, under setting [1], the AC50 is 16.4 µM [falling, partial curve, poor fit].

As to `COc1ccc(Nc2nc(NCc3ccco3)nc(N)c2[N+](=O)[O-])cc1`, under setting [1], the AC50 was 15.8 µM [rising, single point].

With `Clc1ccc2nc(-c3ccc4c(c3)OCO4)cn2c1`, the AC50 under setting [1] is 12.6 µM [falling, partial curve].

For the compound `O=C(CSc1ccc(-c2ccco2)nn1)NCc1ccc(Cl)cc1`, the AC50 under setting [1] was 14.6 µM [falling, partial curve, poor fit].

Take `COc1cc(C(=S)N2CCOCC2)cc(OC)c1OC(=O)Cc1ccc(F)cc1`: the AC50 under setting [1] was 6.51 µM [rising, single point].

As for `COc1ccc(S(=O)(=O)N2CCSCC2)cc1C(N)=O`, under setting [1], the AC50 was 17.8 µM [falling, single point].

Turning to `COc1ccc(C(=O)Nn2c(SCc3cccc([N+](=O)[O-])c3)nc3ccccc3c2=O)cc1`, the AC50 under setting [1] was 8.2 µM [falling, partial curve].

Regarding `CCCC(=O)Nc1ccc2c(c1)nc1n2CCSC1`, under setting [1], the AC50 is 8.2 µM [rising, single point].

As to `Cc1ccc(C(=O)NC2CC(=O)N(c3ccc4c(c3)OCCO4)C2)cc1[N+](=O)[O-]` (stereo unspecified), the half-maximal activity concentration (AC50) under setting [1] was 23.1 µM [rising, partial curve, poor fit].

Take `CCOC(=O)c1[nH]c(CO)c(C(=O)OCC)c1C`: under setting [1], the AC50 was 2.82 µM [rising, full curve, poor fit].

On to `Cc1c(CC(=O)NCC(=O)NCC(=O)O)c(=O)oc2c(C)c3oc4c(c3cc12)CCCC4`, for which the AC50 under setting [1] was 0.708 µM [rising, full curve, poor fit].

In the case of `COc1ccc(/C=C/c2nc3ccccc3n2Cc2ccccc2OC)cc1`, under setting [1], the AC50 was 32.6 µM [falling, single point].

For the compound `CC(c1ccco1)N(C(=O)c1ccc(C#N)cc1)c1ccccn1` (stereo unspecified), the AC50 under setting [1] was 16.4 µM [rising, single point].

For `COc1ccc2c(c1)c(C(=O)N/N=C/c1ccccc1Cl)c(C)n2C`, under setting [1], the half-maximal activity concentration (AC50) was 35.5 µM [falling, single point].

Consider `NC(=O)C(c1ccc(F)cc1)c1ccc(C(=O)c2ccccc2)cc1` (stereo unspecified), for which the AC50 under setting [1] was 11.2 µM [falling, single point].

`O=C(/C=C/c1cccs1)NNC(=O)c1ccccc1`: the AC50 under setting [1] was 9.2 µM [falling, partial curve].

Take `CCOc1ccc(C(=O)NC2CCN(C(=O)Nc3ccccc3OC)CC2)cc1`: the AC50 under setting [1] is 13 µM [rising, partial curve].

Regarding `COc1ccc2c(C)cc(C)nc2n1`, the concentration at half-maximal activity (AC50) under setting [1] was 11.2 µM [falling, partial curve].

For the compound `NC(=O)c1ccc2nc(NC(=O)c3ccc(N)cc3)sc2c1`, the AC50 under setting [1] was 1.26 µM [falling, full curve, poor fit].

For the compound `Cc1c(C#N)c(NC(=O)CCl)n(Cc2ccc(F)cc2)c1C`, the AC50 under setting [1] is 10 µM [falling, partial curve].

For `CCc1nnc(NC(=O)CN2CCN(c3cccc(OC)c3)CC2)s1`, the AC50 under setting [1] is 16.4 µM [rising, partial curve, poor fit].

Regarding `CCCCCC(=O)N/N=C(\C)c1ccc(NC(=O)c2ccco2)cc1`, under setting [1], the AC50 is 10 µM [falling, partial curve, poor fit].

With `CC(=O)C[C@H](O)CC(=O)[C@@H]1OC(=O)CCCCCCCCc2ccccc21`, under setting [1], the AC50 is 29.1 µM [falling, single point].

Turning to `COc1ccc(NC(=O)C(Cc2ccccc2)n2cccc2)c(OC)c1` (stereo unspecified), the half-maximal activity concentration (AC50) under setting [1] was 17.8 µM [rising, single point].

For `O=C(NN=C1CCCC1)c1ccc(O)cc1O`, under setting [1], the AC50 is 14.1 µM [falling, partial curve, poor fit].

As for `COc1ccc(C2N(c3ccccc3)CCN2c2ccccc2)cc1O`, the concentration at half-maximal activity (AC50) under setting [1] is 0.316 µM [rising, full curve, poor fit].

Take `Cc1ccc(-c2nnc(SCC(=O)N3CCCC3)o2)cc1C`: the concentration at half-maximal activity (AC50) under setting [1] was 12.6 µM [falling, single point].

Regarding `CC(=O)[C@H]1[C@H](C#N)C[C@H]2[C@@H]3CC=C4C[C@@H](O)CC[C@]4(C)[C@H]3CC[C@@]21C`, the AC50 under setting [1] is 4.61 µM [rising, partial curve, poor fit].

On to `Cc1ccc(S(=O)(=O)n2cc(-c3ccccc3)c3ccccc32)cc1`, for which the AC50 under setting [1] is 2.59 µM [rising, full curve] and the AC50 under setting [2] was 2.91 µM [falling, full curve].

As for `COc1cc(CNn2c(C)n[nH]c2=S)cc(Cl)c1OCC(=O)NC(C)(C)C`, the AC50 under setting [1] is 11.2 µM [rising, single point].

In the case of `CC1CN(c2ccccc2)c2nc3c(c(=O)[nH]c(=O)n3C)n2C1` (stereo unspecified), the AC50 under setting [1] was 14.1 µM [rising, partial curve, poor fit].

As for `O=C(NNC(=O)c1ccc(Br)cc1)c1ccncc1`, the AC50 under setting [1] was 10 µM [falling, partial curve, poor fit].

Consider `Cc1cccc(-c2cc3nc(C)cc(C)n3n2)c1`, for which the AC50 under setting [1] was 0.282 µM [rising, partial curve, poor fit].

`CN(C(=O)c1cc2c(=O)n3ccccc3nc2n1C)C1CCCCC1`: under setting [1], the AC50 was 8.91 µM [rising, partial curve, poor fit].

`COCCNC(=O)CSc1nc(-c2ccccc2)c(-c2ccccc2)o1`: the AC50 under setting [1] is 16.4 µM [falling, single point].

Take `CCC(CO)NCc1ccc(-c2ccccc2)cc1` (stereo unspecified): the AC50 under setting [1] is 2.06 µM [rising, full curve, poor fit].

With `CCCn1nc(C(=O)NCc2ccccn2)c2ccccc2c1=O`, the AC50 under setting [1] was 20.6 µM [falling, single point].

In the case of `COc1ccc(C(=O)Nc2oc(-c3ccccc3)c(-c3ccccc3)c2C#N)cc1OC`, the AC50 under setting [1] is 4.61 µM [rising, full curve].

`O=C(CNC(=O)c1cccs1)N/N=C/c1c(F)cccc1Cl`: the AC50 under setting [1] was 3.98 µM [falling, full curve, poor fit].

On to `Cn1cc([N+](=O)[O-])c(C(=O)Nc2ccc3c(c2)OCCO3)n1`, for which the AC50 under setting [1] was 14.1 µM [falling, partial curve, poor fit].

For the compound `Cc1ccc(C(=O)CSc2nc3ccccc3c(=O)[nH]2)cc1`, under setting [1], the AC50 is 11.6 µM [rising, partial curve, poor fit].

`Cc1cc(=O)[nH]c(SCC(=O)Nc2nc3ccccc3s2)n1`: the AC50 under setting [1] was 35.5 µM [falling, single point].

As for `CC(=O)N1c2ccc(S(=O)(=O)N3CCC(C(=O)N4CCN(c5ccc(Cl)cc5)CC4)CC3)cc2CC1C` (stereo unspecified), the AC50 under setting [1] is 14.1 µM [falling, single point].

For `O=C1N=C(N2CCOCC2)S/C1=C\c1ccc(OS(=O)(=O)c2ccccc2)cc1`, the AC50 under setting [1] was 31.6 µM [falling, single point].

Consider `CCOc1ccccc1/C=N/NC(=O)CNC(=O)c1cccs1`, for which the concentration at half-maximal activity (AC50) under setting [1] was 2.51 µM [falling, full curve, poor fit].

Take `COc1ccc(OCC(O)CN2CCN(c3ccccc3)CC2)cc1` (stereo unspecified): the concentration at half-maximal activity (AC50) under setting [2] was 0.1 µM [falling, full curve, poor fit].

As for `OC(CCN1CCCCC1)(c1ccccc1)c1ccccc1`, the AC50 under setting [1] is 9.2 µM [rising, partial curve, poor fit].

For the compound `OC(CNC1CCCCC1)COCCOc1ccc(Br)cc1` (stereo unspecified), under setting [1], the AC50 was 9.2 µM [falling, partial curve, poor fit].

On to `COc1ccc(N(CC(=O)Nc2ccc(OC)cc2OC)S(=O)(=O)c2ccccc2)cc1`, for which the AC50 under setting [1] is 0.447 µM [falling, full curve, poor fit].

With `CC(=O)c1cccc(Nc2nc3ccccc3n3cnnc23)c1`, the half-maximal activity concentration (AC50) under setting [1] is 11.2 µM [falling, partial curve, poor fit].

On to `CCNc1nc(NCC)nc(N/N=C(\C)c2ccc(OC)cc2)n1`, for which the AC50 under setting [1] was 11.2 µM [falling, partial curve].

As for `COc1ccc(NS(=O)(=O)c2cccc(C(=O)NN=Cc3ccc(OC)cc3OC)c2)cc1`, the AC50 under setting [1] was 0.651 µM [rising, full curve, poor fit].

On to `O=C(/C=C\Nc1cccc(F)c1)c1cccs1`, for which the AC50 under setting [1] was 23.1 µM [falling, partial curve].

With `COc1cc(OC)c(N(C)S(=O)(=O)c2cccc(C(=O)Nc3nc(C)cs3)c2)cc1Cl`, the AC50 under setting [1] is 23.1 µM [falling, single point].

Turning to `Cc1ccc(NC(=O)COc2ccc(Br)cc2CO)cc1S(=O)(=O)N1CCOCC1`, the AC50 under setting [1] was 32.6 µM [falling, single point].

Consider `N/C(=N\OCc1ccccc1)c1nonc1N`, for which the AC50 under setting [1] was 35.5 µM [falling, single point].

Take `FC(F)(F)c1cnc(COc2ccc(Cl)cc2Cl)c(Cl)c1`: under setting [1], the AC50 is 25.1 µM [rising, single point].

Turning to `O=C(CN1CCSCC1)N1CCc2[nH]c3ccc(Br)cc3c2C1`, the AC50 under setting [1] is 23.1 µM [falling, single point].

As for `Cc1oc(-c2ccc3ccccc3c2)nc1CN(C)C(C)c1ccncn1` (stereo unspecified), the AC50 under setting [1] is 3.55 µM [rising, single point].

These data come from PubChem BioAssay AID493014 (National Center for Advancing Translational Sciences (NCATS), 2011).
